Laboratory results published in article PMC6366974, “The curcumin analog EF24 is a novel senolytic agent” (Aging (Albany NY), 2019).

These compounds were tested on WI-38 IR-induced senescent cells (IR-SCs) (assay: Cell viability assay (flow cytometry, PI)). Settings: WI-38 NCs vs IR-SCs, Table 1.
Assay type: cell-based, human
Experimental: Human WI-38 fibroblasts (WI-38, Cat. No. CCL-75), human IMR-90 fibroblasts (IMR-90, Cat. No. CCL-186), human umbilical vein endothelial cells (HUVEC, Cat. No. CRL-1730), human renal epithelial cells (HREC, Cat. No. PCS-400-012) and human pre-adipocytes (Cat. No. PCS-210-010) were newly purchased from the American Type Culture Collection (ATCC, Manassas, VA, USA). WI-38 and IMR-90 cells were cultured in complete Dulbecco’s modified Eagle medium (DMEM, Cat. No. 12430054, Thermo Fisher Scientific, Waltham, MA, USA) supplemented with 10% heat-inactivated fetal bovine serum (FBS, Cat. No. S11150H, Atlanta Biologicals, Flowery Branch, GA, USA), 100 U/mL penicillin and 100 µg/mL streptomycin (Pen Strep, Cat. No. 15140122, Thermo Fisher Scientific, Waltham, MA, USA) in a humidified incubator at 37°C and 5% CO2. HUVEC were cultured in EGM-2 BulletKit (Cat. No. CC-3162, Lonza, Basel, Switzerland) containing basal medium supplemented with growth factors, cytokines and other supplements according to the manufacturer’s protocol. HREC were cultured in renal epithelial cell basal medium (Cat. No. PCS-400-030, ATCC, Manassas, VA, USA) supplemented with renal epithelial cell growth kit (Cat. No. PCS400040, ATCC, Manassas, VA, USA). Human pre-adipocytes were cultured in fibroblast basal medium (Cat. No. PCS-201-030, ATCC, Manassas, VA, USA) supplemented with fibroblast growth kit-low serum (Cat. No. PCS201041, ATCC, Manassas, VA, USA). EF24 (Cat. No. E8409) and HO-3867 (Cat. No. S7501) were purchased from Sigma-Aldrich (St. Louis, MO, USA) and Selleckchem (Houston, TX, USA), respectively. DIMC (Cat. No. 10009986) and 2-HBA (Cat. No. 11879) were both purchased from Cayman Chemical (Ann Arbor, MI, USA).
Three different methods were used for the induction of SCs, including replicative exhaustion, ionizing radiation and ectopic Ras expression as previously described. […]
Number of viable cells were quantified using flow cytometry as previously described with slight modifications. […] Following dissociation with 0.25% Trypsin-EDTA (Cat. No. 25200056, Thermo Fisher Scientific, Waltham, MA, USA) at 37°C for 5 min, the cells were harvested in 100 µl pre-cooled phosphate buffered saline (PBS, Cat. No. 20012027, Thermo Fisher Scientific, Waltham, MA, USA) containing 2% FBS and 100 ng/mL propidium iodide (PI, P4170, Sigma-Aldrich, St. Louis, MO, USA) and analyzed using flow cytometry (LSR II, BD Biosciences, San Jose, CA, USA). Percentage of viable cells were determined by counting the number of PI negative cells (viable cells) and then calculated as a ratio of control cells treated with vehicle. […]

In order of rising “EC50 value ratio NCs/SCs” value:
1. COc1ccc(/C=C/C(=O)CC(=O)/C=C/c2ccc(OC)c(OC)c2)cc1OC [DIMC, dimethoxycurcumin]  1.56
2. CC1(C)C=C(CN2C/C(=C\c3ccc(F)cc3)C(=O)/C(=C/c3ccc(F)cc3)C2)C(C)(C)N1O [HO-3867]  2.16
3. O=C(C=Cc1ccccc1O)C=Cc1ccccc1O [2-HBA, Bis(2-hydroxybenzylidene)acetone]  2.47
4. O=C1/C(=C/c2ccccc2F)CNC/C1=C\c1ccccc1F [EF24]  2.9
